Measured values published in paper PMC7481418.
No constants are given. Whether binding was seen depends on the method and setting. In cells and extracts the contact can be indirect. Some binding calls cover weakened binding; strength is not graded here.

Chains of the proteins cited; added tags and fusions are not shown.
UniProt P28698: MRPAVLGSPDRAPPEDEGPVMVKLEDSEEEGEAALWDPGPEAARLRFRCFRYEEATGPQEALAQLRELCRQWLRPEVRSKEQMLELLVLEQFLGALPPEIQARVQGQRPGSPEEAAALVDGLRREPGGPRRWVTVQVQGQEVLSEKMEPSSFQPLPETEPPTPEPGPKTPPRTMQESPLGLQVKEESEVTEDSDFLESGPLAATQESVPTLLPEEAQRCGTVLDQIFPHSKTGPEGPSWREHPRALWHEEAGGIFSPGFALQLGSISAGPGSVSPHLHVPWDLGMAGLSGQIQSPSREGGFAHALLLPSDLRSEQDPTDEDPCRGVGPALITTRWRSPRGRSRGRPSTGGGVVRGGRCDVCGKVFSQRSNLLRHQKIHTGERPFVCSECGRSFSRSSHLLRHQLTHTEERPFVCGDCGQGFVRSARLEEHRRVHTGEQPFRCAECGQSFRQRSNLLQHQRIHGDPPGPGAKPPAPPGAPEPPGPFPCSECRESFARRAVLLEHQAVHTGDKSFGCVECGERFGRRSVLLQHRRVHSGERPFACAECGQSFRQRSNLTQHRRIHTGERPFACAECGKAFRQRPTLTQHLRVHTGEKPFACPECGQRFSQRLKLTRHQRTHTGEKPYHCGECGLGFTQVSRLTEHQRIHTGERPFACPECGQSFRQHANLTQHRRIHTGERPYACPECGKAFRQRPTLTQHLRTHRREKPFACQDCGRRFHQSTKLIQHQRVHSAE
UniProt Q9UNE7: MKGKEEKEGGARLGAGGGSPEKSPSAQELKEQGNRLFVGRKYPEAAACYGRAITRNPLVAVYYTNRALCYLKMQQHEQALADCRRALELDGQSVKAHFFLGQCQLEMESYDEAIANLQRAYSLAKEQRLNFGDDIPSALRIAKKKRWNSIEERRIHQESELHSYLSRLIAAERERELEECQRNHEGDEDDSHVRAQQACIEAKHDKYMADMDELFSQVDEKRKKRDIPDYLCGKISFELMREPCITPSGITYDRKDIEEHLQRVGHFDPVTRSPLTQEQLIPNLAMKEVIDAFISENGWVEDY

Target: myeloid zinc finger 1 (MZF1) (human (endogenous in BxPC-3 and PANC-1)) (UniProt P28698)
Assay: co-IP; lysates of BxPC-3/PANC-1 cells transfected with vector or MTSS1-AS overexpression plasmid, cultured in normal (pH 7.4) or acidic (pH 6.8) medium; precipitated overnight at 4 °C with anti-MZF1 or anti-STUB1 (4 μg/mL; control IgG) and Protein A/G PLUS-Agarose; Western blot with anti-MZF1 and anti-STUB1

## STIP1 homology and U-box containing protein 1 (STUB1) (from UniProt Q9UNE7 1-303) (enzyme)
  binding: binds
